Assay results: paper PMC12501252
Results are given in words; binding and its absence hold for the method and conditions named. In cells and extracts the contact can be indirect. A yes stands for co-enrichment or nearness to the bait. Other partners may have been found.

T1: CHCHD10 (human) (human (endogenous in HEK293T)) (UniProt Q8WYQ3)
T1 sequence: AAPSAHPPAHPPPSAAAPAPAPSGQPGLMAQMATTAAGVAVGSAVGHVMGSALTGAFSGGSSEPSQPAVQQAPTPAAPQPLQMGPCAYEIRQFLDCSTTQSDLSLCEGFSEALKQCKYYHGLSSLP

T2: CHCHD2 (human) (human (endogenous in HEK293T)), Q9Y6H1
T2 chain: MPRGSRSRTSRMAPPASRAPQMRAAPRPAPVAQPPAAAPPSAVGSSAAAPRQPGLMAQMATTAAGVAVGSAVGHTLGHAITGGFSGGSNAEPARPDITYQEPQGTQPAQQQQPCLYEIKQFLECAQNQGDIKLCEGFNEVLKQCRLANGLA

T3: CHCHD2 (human) (human (endogenous in HEK293T)) (UniProt Q9Y6H1)
T3 sequence: T2 chain

B1: stomatin-like protein 2 (SLP2), Q9UJZ1 29-356 (protein)
chain: SSGLPRNTVVLFVPQQEAWVVERMGRFHRILEPGLNILIPVLDRIRYVQSLKEIVINVPEQSAVTLDNVTLQIDGVLYLRIMDPYKASYGVEDPEYAVTQLAQTTMRSELGKLSLDKVFRERESLNASIVDAINQAADCWGIRCLRYEIKDIHVPPRVKESMQMQVEAERRKRATVLESEGTRESAINVAEGKKQAQILASEAEKAEQINQAAGEASAVLAKAKAKAEAIRILAAALTQHNGDAAASLTVAEQYVSAFSKLAKDSNTILLPSNPGDVTSMVAQAMGVYGALTKAPVPGTPDSLSSGSSRDVQGTDASLDEELDRVKMS
B2: GHITM (TMBIM5 or MICS1) (protein, UniProt Q9H3K2 46-345)
chain: ATKTRIGIRRGRTGQELKEAALEPSMEKIFKIDQMGRWFVAGGAAVGLGALCYYGLGLSNEIGAIEKAVIWPQYVKDRIHSTYMYLAGSIGLTALSAIAISRTPVLMNFMMRGSWVTIGVTFAAMVGAGMLVRSIPYDQSPGPKHLAWLLHSGVMGAVVAPLTILGGPLLIRAAWYTAGIVGGLSTVAMCAPSEKFLNMGAPLGVGLGLVFVSSLGSMFLPPTTVAGATLYSVAMYGGLVLFSMFLLYDTQKVIKRAEVSPMYGVQKYDPINSMLSIYMDTLNIFMRVATMLATGGNRKK

Assays:
Test in all cases: affinity purification with mass spectrometry; endogenous CHCHD2 or CHCHD10 immunoprecipitated with antibodies on Dynabeads Protein G from mitochondria of HEK293T cells lysed in 10 mM Tris-HCl pH 7.5, 150 mM NaCl, 1% digitonin; beads analysed by label-free quantitative mass spectrometry
[1] = molecular target: T1, CHCHD10 (human) (human (endogenous in HEK293T))
[2] = molecular target: T2, CHCHD2 (human) (human (endogenous in …)); conditions: remark: other sources report otherwise
[3] = molecular target: T3, CHCHD2 (human) (human (endogenous in HEK293T))

Row | Molecule | binding [1] | binding [2] | binding [3]
1 | rhomboid protease PARL (human (endogenous in HEK293T)) (enzyme) | binds |  | 
2 | B1 |  | binds | 
3 | B2 | binds |  | binds
